Laboratory results reported in the supplement of paper PMC7666118.
The other results are listed elsewhere or left out.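 The calls were made as follows: active = dose-dependent thermal stabilisation significant by F-test of dose-response against flat model at 10% FDR; inactive = not significant.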

Protein sequences, listed by entry. Tags and fused reporters are not part of them. Lines headed by an entry give the natural chain unless they say otherwise; changes in a name come on top.
UniProt Q8TAV0: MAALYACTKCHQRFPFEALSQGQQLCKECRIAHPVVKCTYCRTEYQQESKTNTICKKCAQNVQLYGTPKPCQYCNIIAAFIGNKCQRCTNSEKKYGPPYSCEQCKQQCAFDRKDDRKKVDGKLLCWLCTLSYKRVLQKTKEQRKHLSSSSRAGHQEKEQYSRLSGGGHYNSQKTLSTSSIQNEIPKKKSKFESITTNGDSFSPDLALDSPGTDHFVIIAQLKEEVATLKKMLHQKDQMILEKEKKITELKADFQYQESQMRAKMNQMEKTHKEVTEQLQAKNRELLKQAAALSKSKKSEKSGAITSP
UniProt Q6P587: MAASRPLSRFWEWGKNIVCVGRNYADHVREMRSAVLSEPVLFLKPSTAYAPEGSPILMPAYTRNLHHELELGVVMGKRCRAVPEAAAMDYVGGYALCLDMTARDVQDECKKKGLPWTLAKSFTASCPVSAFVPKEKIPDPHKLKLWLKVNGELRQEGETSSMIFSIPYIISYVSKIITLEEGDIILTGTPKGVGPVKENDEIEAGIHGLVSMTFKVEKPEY
UniProt Q15723: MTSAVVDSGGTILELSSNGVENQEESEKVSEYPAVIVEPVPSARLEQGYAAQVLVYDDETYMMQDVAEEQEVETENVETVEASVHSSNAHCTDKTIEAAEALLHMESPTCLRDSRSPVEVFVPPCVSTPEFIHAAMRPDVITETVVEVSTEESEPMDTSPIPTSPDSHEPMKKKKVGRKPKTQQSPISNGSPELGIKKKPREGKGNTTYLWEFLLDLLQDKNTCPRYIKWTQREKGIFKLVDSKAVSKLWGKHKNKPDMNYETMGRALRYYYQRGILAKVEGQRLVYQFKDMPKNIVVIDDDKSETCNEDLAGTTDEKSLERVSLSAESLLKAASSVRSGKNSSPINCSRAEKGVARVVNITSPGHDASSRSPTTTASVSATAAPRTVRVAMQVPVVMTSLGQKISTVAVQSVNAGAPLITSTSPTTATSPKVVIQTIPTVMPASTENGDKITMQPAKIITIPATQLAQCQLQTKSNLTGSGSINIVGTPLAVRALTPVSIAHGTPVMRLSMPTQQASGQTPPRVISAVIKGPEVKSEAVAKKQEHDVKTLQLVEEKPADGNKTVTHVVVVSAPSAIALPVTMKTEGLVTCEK
UniProt Q9GZT9: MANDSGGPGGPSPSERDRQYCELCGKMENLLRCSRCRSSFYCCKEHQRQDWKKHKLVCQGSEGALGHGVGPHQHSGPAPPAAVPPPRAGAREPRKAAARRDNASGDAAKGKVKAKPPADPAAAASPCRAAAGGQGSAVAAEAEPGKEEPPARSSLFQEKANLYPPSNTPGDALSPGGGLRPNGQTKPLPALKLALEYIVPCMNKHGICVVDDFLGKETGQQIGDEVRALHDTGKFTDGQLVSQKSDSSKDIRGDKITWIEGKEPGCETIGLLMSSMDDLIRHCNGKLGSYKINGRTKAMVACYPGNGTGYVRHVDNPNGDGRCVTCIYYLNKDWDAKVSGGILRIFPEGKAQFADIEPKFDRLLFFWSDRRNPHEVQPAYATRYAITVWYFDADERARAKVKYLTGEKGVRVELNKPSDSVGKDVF
UniProt Q00688: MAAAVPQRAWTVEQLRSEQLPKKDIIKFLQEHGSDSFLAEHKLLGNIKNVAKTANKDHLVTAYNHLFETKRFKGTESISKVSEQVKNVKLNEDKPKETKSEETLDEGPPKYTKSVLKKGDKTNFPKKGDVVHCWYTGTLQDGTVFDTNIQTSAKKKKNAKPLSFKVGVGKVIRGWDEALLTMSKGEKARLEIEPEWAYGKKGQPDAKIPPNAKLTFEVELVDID
UniProt Q9BS26: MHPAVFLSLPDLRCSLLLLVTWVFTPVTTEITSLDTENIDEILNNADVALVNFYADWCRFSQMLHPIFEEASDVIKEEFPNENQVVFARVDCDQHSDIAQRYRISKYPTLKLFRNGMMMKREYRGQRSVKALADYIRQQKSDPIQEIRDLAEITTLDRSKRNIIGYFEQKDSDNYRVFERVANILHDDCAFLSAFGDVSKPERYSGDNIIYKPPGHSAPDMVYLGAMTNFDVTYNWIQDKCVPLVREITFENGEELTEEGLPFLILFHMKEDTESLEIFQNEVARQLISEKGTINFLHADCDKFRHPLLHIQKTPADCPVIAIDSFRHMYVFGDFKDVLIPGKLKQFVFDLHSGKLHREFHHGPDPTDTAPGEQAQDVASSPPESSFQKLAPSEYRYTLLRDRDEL
UniProt Q7Z2Z2: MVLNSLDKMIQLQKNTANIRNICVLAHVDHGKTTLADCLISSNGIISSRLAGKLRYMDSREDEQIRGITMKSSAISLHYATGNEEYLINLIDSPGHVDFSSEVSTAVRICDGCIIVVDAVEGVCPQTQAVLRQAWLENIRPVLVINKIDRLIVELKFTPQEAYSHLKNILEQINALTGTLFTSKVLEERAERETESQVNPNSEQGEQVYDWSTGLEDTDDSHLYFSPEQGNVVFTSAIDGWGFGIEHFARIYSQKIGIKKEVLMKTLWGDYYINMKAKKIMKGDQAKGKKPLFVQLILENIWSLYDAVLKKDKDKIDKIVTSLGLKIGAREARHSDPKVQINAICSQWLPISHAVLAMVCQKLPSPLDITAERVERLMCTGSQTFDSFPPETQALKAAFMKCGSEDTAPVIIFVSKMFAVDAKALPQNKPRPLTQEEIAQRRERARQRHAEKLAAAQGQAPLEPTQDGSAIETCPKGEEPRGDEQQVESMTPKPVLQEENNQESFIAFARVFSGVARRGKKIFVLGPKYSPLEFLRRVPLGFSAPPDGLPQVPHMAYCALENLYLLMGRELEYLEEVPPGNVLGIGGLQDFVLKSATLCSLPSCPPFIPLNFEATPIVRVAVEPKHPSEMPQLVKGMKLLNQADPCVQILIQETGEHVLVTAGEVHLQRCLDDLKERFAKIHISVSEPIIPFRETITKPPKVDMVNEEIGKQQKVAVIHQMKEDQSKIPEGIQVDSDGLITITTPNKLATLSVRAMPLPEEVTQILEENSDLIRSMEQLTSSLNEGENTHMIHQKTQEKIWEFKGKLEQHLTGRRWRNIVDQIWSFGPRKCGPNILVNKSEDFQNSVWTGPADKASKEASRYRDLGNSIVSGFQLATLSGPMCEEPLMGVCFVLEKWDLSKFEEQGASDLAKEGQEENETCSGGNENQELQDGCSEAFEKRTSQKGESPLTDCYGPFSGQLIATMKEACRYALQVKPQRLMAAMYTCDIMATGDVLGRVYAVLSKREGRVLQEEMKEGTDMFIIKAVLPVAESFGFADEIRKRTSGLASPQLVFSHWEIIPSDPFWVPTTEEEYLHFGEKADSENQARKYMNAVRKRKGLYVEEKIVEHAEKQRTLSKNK
UniProt O43768: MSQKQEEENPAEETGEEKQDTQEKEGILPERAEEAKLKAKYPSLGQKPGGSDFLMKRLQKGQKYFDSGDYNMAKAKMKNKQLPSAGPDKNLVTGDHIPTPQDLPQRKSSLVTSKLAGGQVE
UniProt Q13643: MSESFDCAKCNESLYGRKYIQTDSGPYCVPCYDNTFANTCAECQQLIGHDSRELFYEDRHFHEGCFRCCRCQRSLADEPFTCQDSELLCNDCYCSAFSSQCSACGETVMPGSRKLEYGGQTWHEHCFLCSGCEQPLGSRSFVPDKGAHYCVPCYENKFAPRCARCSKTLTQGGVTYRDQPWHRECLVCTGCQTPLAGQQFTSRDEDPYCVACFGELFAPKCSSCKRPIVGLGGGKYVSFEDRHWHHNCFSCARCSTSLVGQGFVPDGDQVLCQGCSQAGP
UniProt Q9HBU6: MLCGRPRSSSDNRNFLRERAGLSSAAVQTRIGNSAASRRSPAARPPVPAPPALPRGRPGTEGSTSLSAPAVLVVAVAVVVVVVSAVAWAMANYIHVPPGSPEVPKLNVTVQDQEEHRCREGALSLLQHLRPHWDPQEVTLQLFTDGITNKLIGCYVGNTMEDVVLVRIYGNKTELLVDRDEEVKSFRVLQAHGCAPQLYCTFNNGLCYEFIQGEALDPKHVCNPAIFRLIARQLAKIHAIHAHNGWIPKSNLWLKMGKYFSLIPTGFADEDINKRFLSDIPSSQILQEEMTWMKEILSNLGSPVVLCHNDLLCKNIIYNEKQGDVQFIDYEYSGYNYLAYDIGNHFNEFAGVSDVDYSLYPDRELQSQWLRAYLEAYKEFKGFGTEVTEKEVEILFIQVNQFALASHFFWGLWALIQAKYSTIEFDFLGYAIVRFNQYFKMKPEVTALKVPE
UniProt P06733, whole entry: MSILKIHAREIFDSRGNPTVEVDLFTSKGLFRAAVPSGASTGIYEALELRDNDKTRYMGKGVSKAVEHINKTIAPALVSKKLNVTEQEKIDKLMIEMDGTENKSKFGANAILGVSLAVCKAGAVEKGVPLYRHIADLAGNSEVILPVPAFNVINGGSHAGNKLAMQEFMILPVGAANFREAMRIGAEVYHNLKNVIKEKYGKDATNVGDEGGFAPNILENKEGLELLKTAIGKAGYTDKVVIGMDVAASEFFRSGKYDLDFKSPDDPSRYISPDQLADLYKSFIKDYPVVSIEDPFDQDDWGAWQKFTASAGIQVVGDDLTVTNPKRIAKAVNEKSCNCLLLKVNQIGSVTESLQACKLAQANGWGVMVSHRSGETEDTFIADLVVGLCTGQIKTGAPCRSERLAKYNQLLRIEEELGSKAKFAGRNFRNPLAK
UniProt Q96B26, whole entry: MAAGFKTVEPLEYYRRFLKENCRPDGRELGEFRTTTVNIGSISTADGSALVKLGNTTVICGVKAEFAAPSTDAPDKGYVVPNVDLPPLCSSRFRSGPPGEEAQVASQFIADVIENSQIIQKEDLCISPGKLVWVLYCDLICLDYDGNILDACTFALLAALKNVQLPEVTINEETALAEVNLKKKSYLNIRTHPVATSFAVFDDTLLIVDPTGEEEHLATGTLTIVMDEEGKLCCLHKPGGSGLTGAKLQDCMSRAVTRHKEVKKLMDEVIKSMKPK
UniProt Q13144, whole entry: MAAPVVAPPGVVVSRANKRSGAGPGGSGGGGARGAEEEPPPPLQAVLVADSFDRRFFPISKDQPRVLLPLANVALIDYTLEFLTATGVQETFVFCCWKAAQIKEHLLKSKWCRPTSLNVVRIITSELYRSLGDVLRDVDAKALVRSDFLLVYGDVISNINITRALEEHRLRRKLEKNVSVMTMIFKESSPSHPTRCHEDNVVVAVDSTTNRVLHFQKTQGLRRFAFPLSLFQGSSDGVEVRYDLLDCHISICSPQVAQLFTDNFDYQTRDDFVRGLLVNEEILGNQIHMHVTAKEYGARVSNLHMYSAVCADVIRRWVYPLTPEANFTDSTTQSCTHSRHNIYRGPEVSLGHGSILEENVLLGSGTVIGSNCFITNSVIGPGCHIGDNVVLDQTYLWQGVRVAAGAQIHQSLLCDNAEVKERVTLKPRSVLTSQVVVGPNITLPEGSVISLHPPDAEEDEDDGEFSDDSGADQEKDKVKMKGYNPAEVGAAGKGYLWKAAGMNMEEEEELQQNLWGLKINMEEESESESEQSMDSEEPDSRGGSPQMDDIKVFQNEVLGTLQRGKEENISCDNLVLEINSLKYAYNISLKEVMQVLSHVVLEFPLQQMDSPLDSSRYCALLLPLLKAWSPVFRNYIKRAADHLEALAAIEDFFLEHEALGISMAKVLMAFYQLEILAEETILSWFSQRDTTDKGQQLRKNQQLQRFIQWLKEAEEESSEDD
UniProt Q52LJ0: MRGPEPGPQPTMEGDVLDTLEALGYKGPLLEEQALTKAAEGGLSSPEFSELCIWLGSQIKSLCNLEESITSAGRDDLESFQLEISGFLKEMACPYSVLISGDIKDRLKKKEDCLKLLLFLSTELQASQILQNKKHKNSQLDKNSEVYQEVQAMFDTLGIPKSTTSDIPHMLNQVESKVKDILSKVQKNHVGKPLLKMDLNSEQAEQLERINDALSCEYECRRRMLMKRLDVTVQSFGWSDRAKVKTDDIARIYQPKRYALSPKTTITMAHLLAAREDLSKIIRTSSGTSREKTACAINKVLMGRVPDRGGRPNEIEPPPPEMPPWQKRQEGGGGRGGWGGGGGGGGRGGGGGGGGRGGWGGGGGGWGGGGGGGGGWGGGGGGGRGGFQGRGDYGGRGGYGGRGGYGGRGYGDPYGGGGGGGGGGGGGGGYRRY
UniProt Q16595: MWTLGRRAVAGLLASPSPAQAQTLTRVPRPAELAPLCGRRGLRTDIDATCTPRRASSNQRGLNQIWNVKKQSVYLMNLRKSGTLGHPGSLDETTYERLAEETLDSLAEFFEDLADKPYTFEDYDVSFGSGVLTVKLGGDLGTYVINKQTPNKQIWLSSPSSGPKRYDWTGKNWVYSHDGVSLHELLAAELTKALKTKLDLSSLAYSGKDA

compound: Nc1nc2c(ncn2[C@@H]2O[C@H](COP(=O)(O)OP(=O)(O)OP(=O)(O)O)[C@@H](O)[C@H]2O)c(=O)[nH]1; assay: dose-dependent thermal stabilisation call (2D-TPP, DLPTP, 10% FDR) (binary (1 = stabilised)); higher = stabilised by the compound; details: system: Jurkat gel-filtered lysate; concentration range 1-500 µM

For EHMT2 (UniProt Q96KQ7), which “dose-dependent thermal stabilisation call” value is on record?
Its value is inactive: 0.

How did the “dose-dependent thermal stabilisation call” value turn out when FAM76A (UniProt Q8TAV0) was run?
The value was inactive: 0.

FAHD1 (UniProt Q6P587) was tested. Which “dose-dependent thermal stabilisation call” value did it give?
Its value is inactive: 0.

How did the “dose-dependent thermal stabilisation call” value turn out when ELF2 (UniProt Q15723) was run?
The value was inactive: 0.

How did the “dose-dependent thermal stabilisation call” value turn out when EPM2AIP1 (UniProt Q7L775) was run?
The value was inactive: 0.

With EGLN1 (UniProt Q9GZT9) as the target, how does the “dose-dependent thermal stabilisation call” value read?
The value was inactive: 0.

With FAM221A (UniProt A4D161) as the target, how does the “dose-dependent thermal stabilisation call” value read?
The value was inactive: 0.

Which “dose-dependent thermal stabilisation call” value does the source give for FBXO4 (UniProt Q9UKT5) here?
The value was inactive: 0.

Which “dose-dependent thermal stabilisation call” value does the source give for EIF4G2 (UniProt P78344) here?
The value was inactive: 0.

With FKBP3 (UniProt Q00688) as the target, how does the “dose-dependent thermal stabilisation call” value read?
Its value is inactive: 0.

ELP4 (UniProt Q96EB1) was tested. Which “dose-dependent thermal stabilisation call” value did it give?
Its value is inactive: 0.

With EIF2B4 (UniProt Q9UI10) as the target, how does the “dose-dependent thermal stabilisation call” value read?
The value was inactive: 0.

Which “dose-dependent thermal stabilisation call” value does the source give for EIF4H (UniProt Q15056) here?
Its value is inactive: 0.

With ERP44 (UniProt Q9BS26) as the target, how does the “dose-dependent thermal stabilisation call” value read?
The value was inactive: 0.

With EXOC1 (UniProt Q9NV70) as the target, how does the “dose-dependent thermal stabilisation call” value read?
Its value is inactive: 0.

For EFL1 (UniProt Q7Z2Z2), which “dose-dependent thermal stabilisation call” value is on record?
The value was inactive: 0.

For ENSA (UniProt O43768), which “dose-dependent thermal stabilisation call” value is on record?
The value was inactive: 0.

With FHL3 (UniProt Q13643) as the target, how does the “dose-dependent thermal stabilisation call” value read?
Its value is inactive: 0.

How did the “dose-dependent thermal stabilisation call” value turn out when EXOSC7 (UniProt Q15024) was run?
Its value is inactive: 0.

Which “dose-dependent thermal stabilisation call” value does the source give for ETNK1 (UniProt Q9HBU6) here?
The value was active: 1.

For ENO1 (UniProt P06733), which “dose-dependent thermal stabilisation call” value is on record?
Its value is inactive: 0.

With EYA3 (UniProt Q99504) as the target, how does the “dose-dependent thermal stabilisation call” value read?
The value was inactive: 0.

EXOSC8 (UniProt Q96B26) was tested. Which “dose-dependent thermal stabilisation call” value did it give?
Its value is inactive: 0.

For FAM117A (UniProt Q9C073), which “dose-dependent thermal stabilisation call” value is on record?
The value was inactive: 0.

EIF2B5 (UniProt Q13144) was tested. Which “dose-dependent thermal stabilisation call” value did it give?
The value was inactive: 0.

ELAC2 (UniProt Q9BQ52) was tested. Which “dose-dependent thermal stabilisation call” value did it give?
The value was inactive: 0.

ETFB (UniProt P38117) was tested. Which “dose-dependent thermal stabilisation call” value did it give?
The value was inactive: 0.

For EIF5A (UniProt P63241), which “dose-dependent thermal stabilisation call” value is on record?
Its value is inactive: 0.

EML2 (UniProt O95834) was tested. Which “dose-dependent thermal stabilisation call” value did it give?
The value was inactive: 0.

For FAM98B (UniProt Q52LJ0), which “dose-dependent thermal stabilisation call” value is on record?
Its value is inactive: 0.

Which “dose-dependent thermal stabilisation call” value does the source give for EIF1AX (UniProt P47813) here?
The value was inactive: 0.

FAIM (UniProt Q9NVQ4) was tested. Which “dose-dependent thermal stabilisation call” value did it give?
Its value is inactive: 0.

For FERMT3 (UniProt Q86UX7), which “dose-dependent thermal stabilisation call” value is on record?
The value was inactive: 0.

Which “dose-dependent thermal stabilisation call” value does the source give for FXN (UniProt Q16595) here?
Its value is inactive: 0.

How did the “dose-dependent thermal stabilisation call” value turn out when FAM96A (UniProt Q9H5X1) was run?
The value was inactive: 0.

FAM133B (UniProt Q5BKY9) was tested. Which “dose-dependent thermal stabilisation call” value did it give?
Its value is inactive: 0.
